# Measurements reported in PubChem BioAssay AID1159579 (Peter MacCallum Cancer Centre, 2015).
# Assay: 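Find genes whose silencing alters migration of lymphatic endothelial cells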 (follow-up of hits)
# Cells: human dermal lymphatic endothelial cells
# Knock-down reagent: single siRNA against human genes, 25 nM
# Detection: 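Scratch wound imaging measuring area filled by moving cells plus nuclei number, averaged over two wells and scaled to mock-transfected controls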
# Direction: migration relative to mock: higher = more migration into the scratch; mean nuclei count: higher = more cells remaining
# Call rule: 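a ratio of at most 0.6 or at least 1.3 marks altered migration and an active call; a mean nuclei count under 3300 forces an inactive call regardless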
# Meaning of the calls: active = migration changed (impaired or accelerated); inactive = no migration change, or too few cells
# Here is a random part of about 2,000 deposited reagents. 549 of them (27%) count as active. 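Some migration ratios are negative; siRNAs with too few cells are inactive whatever their migration ratio.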 Unmarked entries are inactive. Reagents against one gene are numbered here. The record does not give: the time to read-out.
target gene,siRNA no.,migration relative to mock,migration and cell number class,mean nuclei count
ADCY6 (adenylate cyclase 6),1,1.11,no change in migration or cell number,6449
ADCY6 (adenylate cyclase 6),2,0.9,no change in migration or cell number,3681
ADCY6 (adenylate cyclase 6),3,0.92,no change in migration or cell number,4239
ADCY6 (adenylate cyclase 6),4,1.11,no change in migration or cell number,5611
STK38 (serine/threonine kinase 38),1,0.38 (active),migration reduced,5453
STK38 (serine/threonine kinase 38),2,0.27 (active),migration reduced,4136
STK38 (serine/threonine kinase 38),3,0.7,no change in migration or cell number,6010
STK38 (serine/threonine kinase 38),4,0.78,no change in migration or cell number,4845
AKT2 (AKT serine/threonine kinase 2),1,0.84,no change in migration or cell number,7106
AKT2 (AKT serine/threonine kinase 2),2,0.92,no change in migration or cell number,6862
AKT2 (AKT serine/threonine kinase 2),3,0.7,no change in migration or cell number,5480
AKT2 (AKT serine/threonine kinase 2),4,1.08,no change in migration or cell number,7283
HLX (H2.0 like homeobox),1,-0.84,too few cells; migration not scored,2470
HLX (H2.0 like homeobox),2,0.82,no change in migration or cell number,4268
HLX (H2.0 like homeobox),3,0.32 (active),migration reduced,5730
HLX (H2.0 like homeobox),4,0.68,no change in migration or cell number,5461
ZNF217 (zinc finger protein 217),1,0.84,no change in migration or cell number,5418
ZNF217 (zinc finger protein 217),2,1.14,no change in migration or cell number,5228
ZNF217 (zinc finger protein 217),3,0.67,no change in migration or cell number,3826
ZNF217 (zinc finger protein 217),4,0.73,no change in migration or cell number,5080
FLT3 (fms related receptor tyrosine kinase 3),1,-0.09 (active),migration reduced,4466
FLT3 (fms related receptor tyrosine kinase 3),2,-0.21 (active),migration reduced,3870
FLT3 (fms related receptor tyrosine kinase 3),3,0.78,no change in migration or cell number,5494
FLT3 (fms related receptor tyrosine kinase 3),4,0.8,no change in migration or cell number,6148
PRKCE (protein kinase C epsilon),1,0.41 (active),migration reduced,5544
PRKCE (protein kinase C epsilon),2,0.72,no change in migration or cell number,5048
PRKCE (protein kinase C epsilon),3,0.8,no change in migration or cell number,5698
PRKCE (protein kinase C epsilon),4,-0.7,too few cells; migration not scored,1732
SLC3A2,1,0.29 (active),migration reduced,4196
SLC3A2,2,0.44,too few cells; migration not scored,2797
SLC3A2,3,1.07,no change in migration or cell number,5744
SLC3A2,4,0.86,no change in migration or cell number,6428
CHM (CHM Rab escort protein),1,1,no change in migration or cell number,5833
CHM (CHM Rab escort protein),2,0.82,no change in migration or cell number,6240
CHM (CHM Rab escort protein),3,0.68,no change in migration or cell number,5965
CHM (CHM Rab escort protein),4,0.75,no change in migration or cell number,5535
TGFBR2 (transforming growth factor beta receptor 2),1,1.01,no change in migration or cell number,6527
TGFBR2 (transforming growth factor beta receptor 2),2,0.12,too few cells; migration not scored,2758
TGFBR2 (transforming growth factor beta receptor 2),3,0.8,no change in migration or cell number,5562
TGFBR2 (transforming growth factor beta receptor 2),4,0.74,no change in migration or cell number,5611
ELF4 (E74 like ETS transcription factor 4),1,0.9,no change in migration or cell number,6528
ELF4 (E74 like ETS transcription factor 4),2,-1,too few cells; migration not scored,2612
ELF4 (E74 like ETS transcription factor 4),3,0.66,no change in migration or cell number,5642
ELF4 (E74 like ETS transcription factor 4),4,0.64,no change in migration or cell number,6112
CYP4F2 (cytochrome P450 family 4 subfamily F member 2),1,0.77,no change in migration or cell number,6296
CYP4F2 (cytochrome P450 family 4 subfamily F member 2),2,0.74,no change in migration or cell number,7265
CYP4F2 (cytochrome P450 family 4 subfamily F member 2),3,1.02,no change in migration or cell number,8481
CYP4F2 (cytochrome P450 family 4 subfamily F member 2),4,0.94,no change in migration or cell number,4605
"HLA-DRB4 (major histocompatibility complex, class II, DR beta 4)",1,0.68,no change in migration or cell number,5434
"HLA-DRB4 (major histocompatibility complex, class II, DR beta 4)",2,0.6 (active),migration reduced,6207
"HLA-DRB4 (major histocompatibility complex, class II, DR beta 4)",3,0.86,no change in migration or cell number,7164
"HLA-DRB4 (major histocompatibility complex, class II, DR beta 4)",4,0.64,no change in migration or cell number,6236
BTK (Bruton tyrosine kinase),1,1,no change in migration or cell number,6509
BTK (Bruton tyrosine kinase),2,0.6 (active),migration reduced,6818
BTK (Bruton tyrosine kinase),3,0.76,no change in migration or cell number,6174
BTK (Bruton tyrosine kinase),4,0.09 (active),migration reduced,5144
SOD1 (superoxide dismutase 1),1,0.66,no change in migration or cell number,6208
SOD1 (superoxide dismutase 1),2,-0.75,too few cells; migration not scored,1700
SOD1 (superoxide dismutase 1),3,1.06,no change in migration or cell number,5170
SOD1 (superoxide dismutase 1),4,1.23,no change in migration or cell number,4600
NUDT2 (nudix hydrolase 2),1,0.52 (active),migration reduced,5379
NUDT2 (nudix hydrolase 2),2,0.84,no change in migration or cell number,5538
NUDT2 (nudix hydrolase 2),3,0.64,no change in migration or cell number,5039
NUDT2 (nudix hydrolase 2),4,0.57 (active),migration reduced,5076
MICAL2,1,0.84,no change in migration or cell number,6524
MICAL2,2,0.34 (active),migration reduced,5974
MICAL2,3,1.04,no change in migration or cell number,6898
MICAL2,4,-0.64 (active),migration reduced,4324

Single entries from the list:
Result for BTK (Bruton tyrosine kinase) #3 in “migration relative to mock”: 0.76
ADCY6 (adenylate cyclase 6) #4, migration relative to mock = 1.11
FLT3 (fms related receptor tyrosine kinase 3) #3, mean nuclei count → 5494
HLX (H2.0 like homeobox) #3, migration and cell number class: migration reduced (active)
